Data taken from article PMC8452301 (CPT: Pharmacometrics & Systems Pharmacology, 2021).
pIC50: −log10 of the molar value. Like-named read-outs stand apart in the source and are kept apart here.

The chains behind the UniProt entries cited, without tags or fusion partners.
UniProt P08183, whole entry: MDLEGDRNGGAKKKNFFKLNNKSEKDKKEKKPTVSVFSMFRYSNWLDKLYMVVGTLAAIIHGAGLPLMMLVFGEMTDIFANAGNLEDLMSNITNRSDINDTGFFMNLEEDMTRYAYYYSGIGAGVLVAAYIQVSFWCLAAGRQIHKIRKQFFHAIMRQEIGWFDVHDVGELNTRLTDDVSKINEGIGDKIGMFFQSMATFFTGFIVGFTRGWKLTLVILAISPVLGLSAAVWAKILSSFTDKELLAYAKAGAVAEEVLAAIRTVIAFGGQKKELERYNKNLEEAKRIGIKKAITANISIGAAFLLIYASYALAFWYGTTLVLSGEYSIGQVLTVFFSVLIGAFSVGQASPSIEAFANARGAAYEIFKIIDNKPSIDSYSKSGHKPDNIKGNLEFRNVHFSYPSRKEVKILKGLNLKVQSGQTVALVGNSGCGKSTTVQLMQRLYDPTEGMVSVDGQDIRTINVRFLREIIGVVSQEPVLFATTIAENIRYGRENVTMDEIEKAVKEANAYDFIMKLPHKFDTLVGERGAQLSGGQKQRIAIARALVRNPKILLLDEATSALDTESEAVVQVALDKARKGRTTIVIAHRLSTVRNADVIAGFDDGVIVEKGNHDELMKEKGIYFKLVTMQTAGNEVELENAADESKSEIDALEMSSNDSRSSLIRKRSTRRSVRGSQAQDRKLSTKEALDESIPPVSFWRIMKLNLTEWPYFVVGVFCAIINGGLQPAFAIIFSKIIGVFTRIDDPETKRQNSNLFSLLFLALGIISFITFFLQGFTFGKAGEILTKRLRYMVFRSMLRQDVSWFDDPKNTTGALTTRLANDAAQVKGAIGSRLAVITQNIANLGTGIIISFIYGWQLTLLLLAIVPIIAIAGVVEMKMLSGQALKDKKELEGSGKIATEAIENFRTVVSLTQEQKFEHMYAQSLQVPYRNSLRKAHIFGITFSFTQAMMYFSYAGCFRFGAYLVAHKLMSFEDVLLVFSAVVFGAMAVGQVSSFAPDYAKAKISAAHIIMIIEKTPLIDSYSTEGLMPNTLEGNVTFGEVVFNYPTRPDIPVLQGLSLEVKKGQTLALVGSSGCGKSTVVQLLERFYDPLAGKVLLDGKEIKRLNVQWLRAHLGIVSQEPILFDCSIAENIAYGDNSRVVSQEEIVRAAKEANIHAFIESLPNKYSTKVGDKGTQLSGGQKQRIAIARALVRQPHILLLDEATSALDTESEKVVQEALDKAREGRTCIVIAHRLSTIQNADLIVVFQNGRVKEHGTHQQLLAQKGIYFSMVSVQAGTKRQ

Legend:
[1] = molecular target: T1, Pgp (Homo sapiens, UniProt P08183); conditions: clinically relevant doses; cut-off for systemic Pgp inhibition
[2] = geometric mean, cited from earlier work; for AUC ratio: AUCinf; for AUC ratio / Cmax ratio: observed, CYP2C9 *1/*1 + *1/*2; for AUCinf ratio: *1*1 subgroup
[3] = molecular target: T1, Pgp; test: cell-based

Compound: COc1cc(OC)cc(N(CCNC(C)C)c2ccc3ncc(-c4cnn(C)c4)nc3c2)c1 [erdafitinib]
- R (50*[Cmax]free) [1]: 570 nM
- Cmax ([2]; 4-mg single dose, no inhibitor, Cohort A n=17): 134 ng/mL
- AUC ratio ([2]; with 200-mg q.d. itraconazole): 1.34
- AUC ratio ([2]; with 400-mg q.d. fluconazole): 1.49
- Cmax ratio ([2]; with 200-mg q.d. itraconazole): 1.04
- Cmax ratio ([2]; with 400-mg q.d. fluconazole): 1.21
- AUCinf ratio ([2]; with fluconazole): 1.52
- AUCinf ratio ([2]; with itraconazole): 1.23
- pIC50 [3]: 6.17
